PubChem BioAssay AID1259425 | University of Nebraska Medical Center | 2018
Purpose: 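Compare each knockdown with KSR1 silencing using changes in marker transcripts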 (primary screen). Cell system: HCT116 human colon cancer cells. Reagents: siRNA pool against human genes, 50 nM siRNA. Read-out: 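After 50 nM siRNA pool, branched-DNA assay measures six marker transcripts per well, minus blank, normalised to the geometric mean of two housekeeping transcripts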. Scale: BNIP3L mRNA: higher = more BNIP3L transcript after knockdown; NDRG1 mRNA: higher = more NDRG1 transcript after knockdown; BNIP3 mRNA: higher = more BNIP3 transcript after knockdown; ALDOC mRNA: higher = more ALDOC transcript after knockdown.
The whole screen tested about 14,000 reagents; this is an unselected part. Further read-outs or replicates are left out here. No sequences are given here. Not given: the time to read-out.

Target gene,"BNIP3L mRNA, set 1","NDRG1 mRNA, set 1","BNIP3 mRNA, set 1","ALDOC mRNA, set 1"
XAB2 (XPA binding protein 2),0.356,0.349,0.445,0.337
WDR46 (WD repeat domain 46),0.139,1.22,0.114,0.019
"XPA (XPA, DNA damage recognition and repair factor)",0.0809,0.0836,0.244,0.0049
SNX25 (sorting nexin 25),0.209,0.222,0.585,0.0333
LRP6 (LDL receptor related protein 6),0.0573,0.166,0.383,0.0215
PRMT1 (protein arginine methyltransferase 1),0.0421,0.213,0.223,0.0231
GLI1 (GLI family zinc finger 1),0.29,0.421,0.557,0.017
GYPE (glycophorin E (MNS blood group)),0.075,0.284,0.317,0.0163
VN1R3 (vomeronasal 1 receptor 3),0.096,0.153,0.315,0.0264
NRCAM (neuronal cell adhesion molecule),0.115,0.0857,0.321,0.0318
H3C6 (H3 clustered histone 6),0.079,0.0941,0.311,0.0136
SFTPB (surfactant protein B),0.16,0.293,0.315,0.0222
PMFBP1 (polyamine modulated factor 1 binding protein 1),0.113,0.236,0.249,0.124
ADO (2-aminoethanethiol dioxygenase),0.129,0.124,0.157,0.0338
KXD1 (KxDL motif containing 1),0.0992,0.231,0.328,0.0583
TRPC4AP,0.0726,0.138,0.654,0.045
CRCP (CGRP receptor component),0.0543,0.0823,0.237,0.0145
"YES1 (YES proto-oncogene 1, Src family tyrosine kinase)",0.109,0.14,0.298,0.0141
H4C12 (H4 clustered histone 12),0.112,0.156,0.283,0.0304
KIF22 (kinesin family member 22),0.065,0.0956,0.169,0.032

Reformatted: 3 of the entries above.
VN1R3 (vomeronasal 1 receptor 3)
- BNIP3L mRNA, set 1: 0.096
- NDRG1 mRNA, set 1: 0.153
- BNIP3 mRNA, set 1: 0.315
- ALDOC mRNA, set 1: 0.0264

NRCAM (neuronal cell adhesion molecule)
- BNIP3L mRNA, set 1: 0.115
- NDRG1 mRNA, set 1: 0.0857
- BNIP3 mRNA, set 1: 0.321
- ALDOC mRNA, set 1: 0.0318

H3C6 (H3 clustered histone 6)
- BNIP3L mRNA, set 1: 0.079
- NDRG1 mRNA, set 1: 0.0941
- BNIP3 mRNA, set 1: 0.311
- ALDOC mRNA, set 1: 0.0136
